# Measurements as given in patent US11077128B2, “Selective inhibitors of Alpha2-containing isoforms of Na,K-ATPase and use thereof for reduction of intraocular pressure” (Yeda Research and Development Co. Ltd., priority 2015, dated 2021).
# System: Na,K-ATPase in NPE cells
# Format: cell-based, bovine
# Details: two site model
smiles,measurement,value
"CC1CN(C2CCC2)CCC(O[C@@H]2C(C)O[C@@H](O[C@@H]3C(C)O[C@@H](O[C@H]4CC[C@@]5(C)C(CCC6C5CC(O)[C@]5(C)[C@@H](C7=CC(=O)OC7)CC[C@]65O)C4)C[C@@H]3O)C[C@@H]2O)O1 (stereo in doubt) [DcB, 4-((3S,5R,8R,9S,10S,12R,13S,14S,17R)-3-(((2R,4S,5S,6R)-5-(((2S,4S,5S,6R)-5-((4-cyclobutyl-2-methyl-1,4-oxazepan-7-yl)oxy)-4-hydroxy-6-methyltetrahydro-2H-pyran-2-yl)oxy)-4-hydroxy-6-methyltetrahydro-2H-pyran-2-yl)oxy)-12,14-dihydroxy-10,13-dimethylhexadecahydro-1H-cyclopenta[a]phenanthren-17-yl)furan-2(5H)-one]","A α1, 2 sites model (fraction of α1)",0.34 ± 0.097
same,"A α2, 2 sites model (fraction of α2)",0.66 ± 0.090

# Some results come without the dose or concentration used.
